Source: article PMC11941830
Positions count from the first letter of the chain named. Results are given in words; binding and its absence hold for the method and conditions named. Binding seen in cells or lysates may run through a third protein. Some entries that bind do so weakly or less than the wild type. Sequences can lack the tags named with a protein.

Protein sequences, listed by entry. Tags and fused reporters are not part of them. Residues count along the entry.
UniProt P02787, residues 20-698: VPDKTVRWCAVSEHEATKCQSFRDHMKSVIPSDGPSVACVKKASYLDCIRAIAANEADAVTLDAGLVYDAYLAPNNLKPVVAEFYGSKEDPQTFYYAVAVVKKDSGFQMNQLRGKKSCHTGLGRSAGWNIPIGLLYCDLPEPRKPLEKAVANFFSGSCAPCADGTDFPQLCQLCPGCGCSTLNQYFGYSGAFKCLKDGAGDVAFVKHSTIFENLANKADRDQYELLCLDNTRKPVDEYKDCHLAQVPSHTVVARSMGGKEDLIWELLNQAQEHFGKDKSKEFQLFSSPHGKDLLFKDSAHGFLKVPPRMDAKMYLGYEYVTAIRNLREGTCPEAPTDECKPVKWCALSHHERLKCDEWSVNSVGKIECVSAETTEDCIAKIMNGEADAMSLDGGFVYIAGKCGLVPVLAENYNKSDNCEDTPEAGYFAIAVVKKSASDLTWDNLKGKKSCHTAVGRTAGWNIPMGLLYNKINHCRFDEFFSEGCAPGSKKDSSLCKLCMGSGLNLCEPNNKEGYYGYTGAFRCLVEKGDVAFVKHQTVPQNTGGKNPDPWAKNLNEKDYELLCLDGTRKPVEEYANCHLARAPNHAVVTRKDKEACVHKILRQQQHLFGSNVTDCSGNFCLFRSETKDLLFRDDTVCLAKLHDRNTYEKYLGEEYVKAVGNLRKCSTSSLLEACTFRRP

Experiments:
[1] = target: T1, Full-length human hephaestin variant D568H with a C-terminal FLAG-tag (human) (UniProt Q9BQS7); assay: proximity ligation; Duolink PLA on HEK293T co-transfected with Fpn1-GFP and HephWT or HephD568H; cells incubated for 30 min with 0.25 µM apo-Tfn or holo-Tfn in serum-free medium before fixation; only the binder purified
T1 sequence: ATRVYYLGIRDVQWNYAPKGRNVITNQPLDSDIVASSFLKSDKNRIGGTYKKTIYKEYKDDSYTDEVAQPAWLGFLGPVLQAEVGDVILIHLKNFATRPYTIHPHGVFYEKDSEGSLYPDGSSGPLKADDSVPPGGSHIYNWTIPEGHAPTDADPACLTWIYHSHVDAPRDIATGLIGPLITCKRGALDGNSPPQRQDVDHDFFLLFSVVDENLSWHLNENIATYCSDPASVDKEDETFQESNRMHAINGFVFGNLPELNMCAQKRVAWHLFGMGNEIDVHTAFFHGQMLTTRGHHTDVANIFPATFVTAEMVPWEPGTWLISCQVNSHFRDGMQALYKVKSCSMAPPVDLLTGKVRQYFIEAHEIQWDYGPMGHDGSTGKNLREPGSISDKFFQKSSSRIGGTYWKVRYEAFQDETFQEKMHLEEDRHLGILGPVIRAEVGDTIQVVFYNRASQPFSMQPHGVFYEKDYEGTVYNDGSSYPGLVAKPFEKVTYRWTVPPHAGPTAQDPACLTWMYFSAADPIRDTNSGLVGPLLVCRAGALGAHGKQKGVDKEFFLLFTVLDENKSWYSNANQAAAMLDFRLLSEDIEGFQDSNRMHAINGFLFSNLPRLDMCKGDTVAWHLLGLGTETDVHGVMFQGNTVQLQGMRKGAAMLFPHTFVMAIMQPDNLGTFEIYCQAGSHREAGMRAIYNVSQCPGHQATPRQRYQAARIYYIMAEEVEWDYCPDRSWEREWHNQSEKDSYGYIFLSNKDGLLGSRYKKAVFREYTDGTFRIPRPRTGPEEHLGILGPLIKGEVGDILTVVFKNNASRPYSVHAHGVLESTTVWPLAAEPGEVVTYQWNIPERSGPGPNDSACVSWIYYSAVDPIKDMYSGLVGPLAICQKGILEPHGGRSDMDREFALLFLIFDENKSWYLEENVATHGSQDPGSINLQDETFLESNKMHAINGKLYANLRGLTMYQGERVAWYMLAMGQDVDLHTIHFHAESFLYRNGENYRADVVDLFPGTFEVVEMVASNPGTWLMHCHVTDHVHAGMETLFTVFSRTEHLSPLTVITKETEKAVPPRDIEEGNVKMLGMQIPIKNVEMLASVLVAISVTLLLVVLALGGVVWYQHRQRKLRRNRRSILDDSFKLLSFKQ

[2] = target: T2, Full-length human hephaestin, wild type, with a C-terminal FLAG-tag (human) (UniProt Q9BQS7); assay: as above
T2 sequence: T1 sequence with H545D

**Q.** Which results are given for “Apo-transferrin (iron-depleted transferrin) (from UniProt P02787 20-698)”?
**A.** binding [1]: binds weakly; binding [2]: binds
